In patent US20250282890A1:
These are yes or no findings as the source states them, for the method shown. Some results given as binding are weak or reduced against the parent protein; the word gives no strength.

Chains of the proteins cited; added tags and fusions are not shown. Lines headed by an entry give the natural chain unless they say otherwise; changes in a name come on top.
UniProt Q04609: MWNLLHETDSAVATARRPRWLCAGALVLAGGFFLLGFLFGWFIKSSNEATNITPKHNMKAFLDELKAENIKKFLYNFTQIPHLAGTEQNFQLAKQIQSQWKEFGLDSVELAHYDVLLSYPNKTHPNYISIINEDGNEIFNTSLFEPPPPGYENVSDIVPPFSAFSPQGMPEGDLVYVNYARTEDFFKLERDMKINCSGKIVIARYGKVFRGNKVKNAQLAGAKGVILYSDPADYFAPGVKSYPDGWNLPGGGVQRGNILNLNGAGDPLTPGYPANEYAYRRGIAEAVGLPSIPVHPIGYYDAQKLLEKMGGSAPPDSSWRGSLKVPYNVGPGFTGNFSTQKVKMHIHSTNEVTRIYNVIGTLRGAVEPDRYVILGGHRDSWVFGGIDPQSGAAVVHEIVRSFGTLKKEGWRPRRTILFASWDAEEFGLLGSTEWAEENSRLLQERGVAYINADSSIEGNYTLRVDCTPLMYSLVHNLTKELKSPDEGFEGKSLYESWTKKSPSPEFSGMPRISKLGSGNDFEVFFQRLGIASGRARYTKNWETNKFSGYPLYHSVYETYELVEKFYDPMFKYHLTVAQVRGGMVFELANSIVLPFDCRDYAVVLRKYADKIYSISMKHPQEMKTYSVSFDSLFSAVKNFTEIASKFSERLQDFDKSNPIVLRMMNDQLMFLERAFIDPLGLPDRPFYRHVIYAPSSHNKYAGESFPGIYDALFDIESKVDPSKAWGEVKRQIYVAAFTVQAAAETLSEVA

Key:
[1] = biological target: recombinant human PSMA (prostate-specific membrane antigen), biotin-tagged (human) (UniProt Q04609); experiment: ELISA on plates coated with recombinant PSMA, two-fold dilution series, goat anti-human-HRP and TMB
[2] = biological target: recombinant human PSMA (prostate-specific membrane antigen), biotin-tagged (human) (UniProt Q04609); experiment: ELISA on plates coated with recombinant PSMA (biotin-tagged, captured on streptavidin), two-fold dilution series, goat anti-human-HRP and TMB

| binding [1] | binding [2] | Binder |
| --- | --- | --- |
| binds |  | 5-5D3-IgG1 (antibody, V domains shown) VH: QVQLVQSGPEVKKPGASVRLSCKASGYAFNTSWMNWVRQAPGQGLEWIGRIYPGDGDTNYNGKFKGKATMTADKSTNTAYMELRSLRSDDTAVYYCGRGEWYLYYFDYWGQGTLVTVSS VL: DIQMTQSPSSVSASVGDRVTISCSASQGINNFLTWYQQKLGKALQLLIYYTSSLHSGVPSRFSGSGSGTDYTLTISSLQPEDFATYYCQQYSNLPFTFGPGTKVDIK |
|  | binds | 5-5D3-hFab (Fab, V domains shown) VH: QVQLVQSGPEVKKPGASVRLSCKASGYAFNTSWMNWVRQAPGQGLEWIGRIYPGDGDTNYNGKFKGKATMTADKSTNTAYMELRSLRSDDTAVYYCGRGEWYLYYFDYWGQGTLVTVSS VL: DIQMTQSPSSVSASVGDRVTISCSASQGINNFLTWYQQKLGKALQLLIYYTSSLHSGVPSRFSGSGSGTDYTLTISSLQPEDFATYYCQQYSNLPFTFGPGTKVDIK |
